From publication PMC9814191
No constants are given. Whether binding was seen depends on the method and setting. In cells and extracts the contact can be indirect. Where a sequence is shown, tags or fusion partners need not be part of it.

Target: T1, Fc-tagged purified human recombinant TLT-1 (TREM-like transcript 1) (human) (UniProt Q86YW5)
T1 sequence: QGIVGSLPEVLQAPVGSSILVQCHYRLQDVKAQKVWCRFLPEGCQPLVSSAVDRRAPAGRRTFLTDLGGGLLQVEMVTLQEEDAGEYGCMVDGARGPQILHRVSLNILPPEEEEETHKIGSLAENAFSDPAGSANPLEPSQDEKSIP
Test: co-IP; intact Jurkat cells incubated 15 min with Fc-tagged purified TLT-1 or IgG as control; lysate in mild IP lysis buffer (not boiled); 1 mg total protein with Protein A/G Dynabeads; immunoblot for individual targets with non-IP lysate as input; only the target purified

TNFR (human (endogenous in Jurkat)) (receptor)
binding: no binding
